This assay deals with HEK293A TEAD-LUC reporter. Nature of the assay: TEAD-luciferase reporter activity (YAP activation), robust Z score vs plate; higher = stronger YAP/TEAD activation. As to conditions: 24 h. (In general: In a reporter assay the amount or activity of a reporter protein is the signal.)

Counter-ions that a name gives are not always drawn. The list shows a part of the results. Repeats in this data set agree poorly, so a single value says little.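 Human kidney-derived cells stably carry a construct in which eight TEAD-binding elements drive luciferase, measured by luminescence in a drug-repurposing library screen. A hit is any compound whose signal exceeds the plate mean by more than five robust Z scores.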

On to `C[N+]1(CCF)C2CCC1CC(OC(=O)C(O)(c1ccccc1)c1ccccc1)C2` (centres undefined), for which the TEAD-luciferase reporter activity reads like this: (compound concentration: 200 nM) inactive: 3.2; (compound concentration: 2 uM) inactive: -1.51; (compound concentration: 10 uM) inactive: 1.16.
Consider `CCC(C)CC(C)N` (centres undefined), for which the TEAD-luciferase reporter activity is, setting by setting: (compound concentration: 200 nM) inactive: -0.376; (compound concentration: 2 uM) inactive: -0.242; (compound concentration: 10 uM) inactive: -0.803.
For `Cc1ccc(C2C(=O)NC(=O)NC2=O)cc1`, in that order: inactive: -0.601, inactive: 0.0565 and inactive: 2.12.
As for `NC1=NCC(c2ccc(Cl)cc2)O1` (centres undefined), the TEAD-luciferase reporter activity by setting is: (compound concentration: 200 nM) inactive: -0.28; (compound concentration: 2 uM) inactive: -1.69; (compound concentration: 10 uM) inactive: -0.261.
Regarding `O=C(O[C@H]1CN2CCC1CC2)N(Cc1cc(F)c(F)c(F)c1)c1cccc(F)c1` [tarafenacin], the TEAD-luciferase reporter activity (compound concentration: 200 nM) was inactive: -0.836, the TEAD-luciferase reporter activity (compound concentration: 2 uM) is inactive: -0.0305 and the TEAD-luciferase reporter activity (compound concentration: 10 uM) is inactive: -0.234.
On to `Clc1ccc([C@]23CNC[C@H]2C3)cc1Cl` [Amitifadine], for which the TEAD-luciferase reporter activity is, setting by setting: (compound concentration: 200 nM) inactive: -0.795; (compound concentration: 2 uM) inactive: 0.604; (compound concentration: 10 uM) inactive: 4.33.
For `CCOc1ccc2c3c1O[C@H]1[C@@H](O)C=C[C@H]4[C@@H](C2)N(C)CC[C@@]341` [Ethylmorphine], the TEAD-luciferase reporter activity (compound concentration: 200 nM) was inactive: 1.46 and the TEAD-luciferase reporter activity (compound concentration: 10 uM) was inactive: -0.0979.
In the case of `Cc1cc2c(C(F)(F)F)c(C#N)ccc2n1Cc1noc(-c2cccc(C(F)(F)F)c2)n1`, the TEAD-luciferase reporter activity was inactive: -1.63 (compound concentration: 200 nM), inactive: -0.876 (compound concentration: 2 uM) and inactive: -0.136 (compound concentration: 10 uM).
Taken in the same sequence, the figures for `COc1ccc2[nH]c(=O)n(C(=O)O[C@H]3C[C@H]4CC[C@@H](C3)N4C)c2c1` were inactive: 0.281, inactive: -1.32 and inactive: 2.11.
As to `O=c1[nH]c2ccccc2n1C1CCN(CCCc2noc3cc(F)ccc23)CC1` [neflumozide], the TEAD-luciferase reporter activity is, setting by setting: (compound concentration: 200 nM) inactive: 0.0638; (compound concentration: 2 uM) inactive: -1.13; (compound concentration: 10 uM) inactive: -1.6.
As to `C/C1=C/C[C@@H](/C(C)=C/c2csc(C)n2)OC(=O)C[C@H](O)C(C)(C)C(=O)[C@H](C)[C@@H](O)[C@@H](C)CCC1` [Desoxyepothilone B], the TEAD-luciferase reporter activity is inactive: -3.8 (compound concentration: 200 nM), inactive: -0.13 (compound concentration: 2 uM) and inactive: -0.256 (compound concentration: 10 uM).
For `C[N+]1([O-])C2CCC1CC(OC(=O)C(CO)c1ccccc1)C2` (centres undefined), the TEAD-luciferase reporter activity (compound concentration: 200 nM) was inactive: -1.96, the TEAD-luciferase reporter activity (compound concentration: 2 uM) is inactive: -0.604 and the TEAD-luciferase reporter activity (compound concentration: 10 uM) is inactive: 0.132.
Take `CN(C)C(=O)c1cncc(-c2cn(CC3(F)CCOCC3)c(C(C)(C)C)n2)n1`: the TEAD-luciferase reporter activity is inactive: -0.0165 (compound concentration: 200 nM), inactive: 1.61 (compound concentration: 2 uM) and inactive: 0.448 (compound concentration: 10 uM).
`CN1CC[C@]23CCCC[C@H]2[C@H]1Cc1ccc(O)cc13` (stereo in doubt): the TEAD-luciferase reporter activity is inactive: -1.29 (compound concentration: 200 nM) and inactive: -2.54 (compound concentration: 10 uM).
Take `CC1CNS(=O)(=O)N(c2ccc3c(C#N)nccc3c2)C1` (centres undefined): the TEAD-luciferase reporter activity is, setting by setting: (compound concentration: 200 nM) inactive: 0.178; (compound concentration: 2 uM) inactive: 0.0589; (compound concentration: 10 uM) inactive: -0.77.
Take `Cn1cc(CCN2CCN(c3ccccc3Cl)CC2)cn1`: the TEAD-luciferase reporter activity is inactive: -2.63 (compound concentration: 200 nM), inactive: 0.973 (compound concentration: 2 uM) and inactive: 2.67 (compound concentration: 10 uM).
For the compound `CCNCC(O)c1cccc(O)c1` (centres undefined) [etilefrine], the TEAD-luciferase reporter activity by setting is: (compound concentration: 200 nM) inactive: -0.557; (compound concentration: 10 uM) inactive: 0.892.
Turning to `CCNCC(O)c1cccc(O)c1` (centres undefined), under “compound concentration: 2 uM”, the TEAD-luciferase reporter activity was inactive: -0.361.
Turning to `Cc1nc2ccccc2c(=O)n1-c1ccccc1Cl`, the TEAD-luciferase reporter activity (compound concentration: 200 nM) is inactive: -1.35, the TEAD-luciferase reporter activity (compound concentration: 2 uM) was inactive: -1.95 and the TEAD-luciferase reporter activity (compound concentration: 10 uM) is inactive: 4.58.
Regarding `C=C1CC2(CCNCC2)OC1C` (centres undefined), the TEAD-luciferase reporter activity by setting is: (compound concentration: 200 nM) inactive: -0.94; (compound concentration: 2 uM) inactive: -2.42; (compound concentration: 10 uM) inactive: 0.462.
On to `CC(C)(C)C(=O)OC1N=C(c2ccccc2)c2cc(Cl)ccc2NC1=O` (centres undefined), for which the TEAD-luciferase reporter activity reads like this: (compound concentration: 200 nM) inactive: 0.0327; (compound concentration: 2 uM) inactive: -0.933; (compound concentration: 10 uM) inactive: -1.45.
Take `CC(Cc1ccccc1)[n+]1cc(/N=C(\[O-])Nc2ccccc2)on1` (centres undefined): the TEAD-luciferase reporter activity by setting is: (compound concentration: 200 nM) inactive: -1.21; (compound concentration: 2 uM) inactive: -0.707; (compound concentration: 10 uM) inactive: -0.622.
For the compound `Cn1c(CCCC(=O)O)nc2cc(N(CCCl)CCCl)ccc21` [Bendamustine hydrochloride], the TEAD-luciferase reporter activity is inactive: -0.262 (compound concentration: 200 nM), inactive: -1.16 (compound concentration: 2 uM) and inactive: 2.36 (compound concentration: 10 uM).
With `CCSSCC12CCC(=O)C=C1CC[C@H]1[C@@H]3CCC(=O)C3(C)CC[C@@H]12` (some centres undefined), the TEAD-luciferase reporter activity is inactive: -0.508 (compound concentration: 200 nM), inactive: -1.59 (compound concentration: 2 uM) and inactive: -1.1 (compound concentration: 10 uM).
As to `CC(=O)[C@H]1CC[C@H]2[C@@H]3CC[C@H]4C[C@H](O)CC[C@]4(C)[C@H]3CC[C@]12C` [Allopregnanolone], the TEAD-luciferase reporter activity (compound concentration: 2 uM) was inactive: -1.41.
Take `CC(=O)[C@H]1CC[C@H]2[C@@H]3CC[C@H]4C[C@H](O)CC[C@]4(C)[C@H]3CC[C@]12C` [(3?,5?)-3-Hydroxy-pregnan-20-one]: the TEAD-luciferase reporter activity reads like this: (compound concentration: 200 nM) inactive: -1.49; (compound concentration: 10 uM) inactive: 3.19.
Turning to `NC(=O)OCC(N)Cc1ccccc1` (centres undefined), the TEAD-luciferase reporter activity (compound concentration: 200 nM) is inactive: 2.45, the TEAD-luciferase reporter activity (compound concentration: 2 uM) was inactive: 0.946 and the TEAD-luciferase reporter activity (compound concentration: 10 uM) is inactive: -1.26.
Take `Cn1cc(C2=C(c3cn(C4CCN(Cc5ccccn5)CC4)c4ccccc34)C(=O)NC2=O)c2ccccc21` [enzastaurin hydrochloride]: the TEAD-luciferase reporter activity was inactive: -2.69 (compound concentration: 200 nM), inactive: -1.25 (compound concentration: 2 uM) and inactive: 1.92 (compound concentration: 10 uM).
As for `CC12CCC(=O)C=C1CC[C@@H]1[C@@H]2CCC2(C)[C@@H](O[Si](C)(C)C)CC[C@@H]12` (some centres undefined), the TEAD-luciferase reporter activity runs as follows: (compound concentration: 200 nM) inactive: -0.137; (compound concentration: 2 uM) inactive: -1.28; (compound concentration: 10 uM) inactive: 0.0905.
Turning to `NC1CC1c1ccccc1` (centres undefined) [Tranylcypromine hydrochloride], the TEAD-luciferase reporter activity was inactive: 1.67 (compound concentration: 200 nM) and inactive: 0.73 (compound concentration: 10 uM).
As for `NC1CC1c1ccccc1` (centres undefined) [Tranylcypromine sulfate], the TEAD-luciferase reporter activity (compound concentration: 2 uM) is inactive: -2.09.
For `CN1[C@@H]2CC=C(C(=O)O)[C@H]1CC2` [Ecgonine, derivative of], the TEAD-luciferase reporter activity was inactive: 0.292 (compound concentration: 200 nM), inactive: -0.497 (compound concentration: 2 uM) and inactive: 1.4 (compound concentration: 10 uM).
On to `C[C@]12C=CC(=O)C=C1CC[C@@H]1[C@@H]2CC[C@@]2(C)[C@H]1CC[C@]2(C)O`, for which the TEAD-luciferase reporter activity is, setting by setting: (compound concentration: 200 nM) inactive: -0.906; (compound concentration: 2 uM) inactive: 1.11; (compound concentration: 10 uM) inactive: 0.0717.
As to `CC[C@@]1(O)C(=O)OCc2c1cc1n(c2=O)Cc2c-1nc1ccccc1c2/C=N/OCCN`, the TEAD-luciferase reporter activity is, setting by setting: (compound concentration: 200 nM) inactive: -1.69; (compound concentration: 2 uM) inactive: -0.63; (compound concentration: 10 uM) inactive: -0.581.
For the compound `CCC[C@]1(O)CC[C@H]2[C@@H]3CCC4=CC(=O)CCC4(C)[C@H]3CCC21C` (some centres undefined) [topterone], the TEAD-luciferase reporter activity by setting is: (compound concentration: 200 nM) inactive: -0.574; (compound concentration: 2 uM) inactive: 0.2; (compound concentration: 10 uM) inactive: 0.801.
Turning to `CC1[O][Pt-2]2([NH]C[C@@H]3CC[C@H]3C[NH]2)[O]C1=O` (some centres undefined) [Lobaplatin], the TEAD-luciferase reporter activity runs as follows: (compound concentration: 200 nM) inactive: -0.814; (compound concentration: 10 uM) inactive: 1.05.
`CCOC(=O)NC1=C(N2CC2)C(=O)C(NC(=O)OCC)=C(N2CC2)C1=O`: the TEAD-luciferase reporter activity is inactive: -0.156 (compound concentration: 200 nM), inactive: -1.12 (compound concentration: 2 uM) and inactive: -0.981 (compound concentration: 10 uM).

Values taken from the supplement of paper PMC10735217.
